Consider one compound from patent publication US12269831B2, “Modulators of cystic fibrosis transmembrane conductance regulator” (Vertex Pharmaceuticals Incorporated, priority 2020, dated 2025).

Sequences of proteins named here, by UniProt entry; tags and fusion partners are left off. A line that says so, or that is headed by a name, gives the form on record, which may keep a tag or linker.
UniProt P13569, with tags, fused parts or gaps DEL508-508: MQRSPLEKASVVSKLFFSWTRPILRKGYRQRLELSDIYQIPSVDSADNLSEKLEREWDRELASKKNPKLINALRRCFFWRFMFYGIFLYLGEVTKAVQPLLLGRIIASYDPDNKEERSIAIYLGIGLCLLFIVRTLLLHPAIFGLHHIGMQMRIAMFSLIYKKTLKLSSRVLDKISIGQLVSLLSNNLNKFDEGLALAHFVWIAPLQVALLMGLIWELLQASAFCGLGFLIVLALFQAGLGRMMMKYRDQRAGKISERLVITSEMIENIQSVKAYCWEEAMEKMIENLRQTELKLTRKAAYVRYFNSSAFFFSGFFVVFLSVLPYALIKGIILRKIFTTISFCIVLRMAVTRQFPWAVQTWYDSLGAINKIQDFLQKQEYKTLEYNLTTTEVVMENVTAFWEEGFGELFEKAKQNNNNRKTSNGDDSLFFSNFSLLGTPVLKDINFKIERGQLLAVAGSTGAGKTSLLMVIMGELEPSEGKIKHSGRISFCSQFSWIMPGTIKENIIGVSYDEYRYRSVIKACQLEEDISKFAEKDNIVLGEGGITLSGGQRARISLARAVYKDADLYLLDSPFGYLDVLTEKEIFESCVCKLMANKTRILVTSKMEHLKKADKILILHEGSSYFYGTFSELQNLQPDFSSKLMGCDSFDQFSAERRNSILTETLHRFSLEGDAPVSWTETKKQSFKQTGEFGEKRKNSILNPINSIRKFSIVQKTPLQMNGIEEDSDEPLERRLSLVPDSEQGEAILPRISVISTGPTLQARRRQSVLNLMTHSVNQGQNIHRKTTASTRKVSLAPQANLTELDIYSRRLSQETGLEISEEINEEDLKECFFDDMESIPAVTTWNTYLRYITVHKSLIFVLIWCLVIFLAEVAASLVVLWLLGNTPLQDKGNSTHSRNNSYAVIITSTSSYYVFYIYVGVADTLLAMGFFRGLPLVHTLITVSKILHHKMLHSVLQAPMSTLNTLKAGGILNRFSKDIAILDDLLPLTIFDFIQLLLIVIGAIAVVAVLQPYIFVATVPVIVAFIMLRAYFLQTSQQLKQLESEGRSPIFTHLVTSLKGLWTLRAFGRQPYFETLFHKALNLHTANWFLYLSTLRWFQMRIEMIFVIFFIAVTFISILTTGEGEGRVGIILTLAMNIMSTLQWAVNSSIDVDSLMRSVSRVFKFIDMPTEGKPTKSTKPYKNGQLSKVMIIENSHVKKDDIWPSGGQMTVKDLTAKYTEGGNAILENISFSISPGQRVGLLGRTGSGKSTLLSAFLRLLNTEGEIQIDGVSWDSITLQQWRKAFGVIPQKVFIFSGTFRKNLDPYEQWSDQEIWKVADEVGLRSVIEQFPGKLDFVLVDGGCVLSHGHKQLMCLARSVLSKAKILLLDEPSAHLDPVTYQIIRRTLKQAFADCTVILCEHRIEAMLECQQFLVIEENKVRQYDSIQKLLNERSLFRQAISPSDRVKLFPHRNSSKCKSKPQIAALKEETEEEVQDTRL

The match of structure and compound is tentative.

This experiment addresses CFTR (F508del/MF-HBE cells) (Homo sapiens, UniProt P13569, DEL508-508). Nature of the experiment: Ussing chamber assay of CFTR-mediated short-circuit currents (potentiator identification). Particulars: CFTR-mediated Isc, 18-24 h incubation at 37° C. with 10 μM (14S)-8-[3-(2-{dispiro[2.0.2.1]heptan-7-yl}ethoxy)-1H-pyrazol-1-yl]-... corrector, 20% human serum. The procedure:
Ussing Chamber Assay of CFTR-Mediated Short-Circuit Currents
Ussing chamber experiments were performed using human bronchial epithelial (HBE) cells derived from CF subjects heterozygous for F508del and a minimal function CFTR mutation (F508del/MF-HBE) and cultured as previously described (Neuberger T, Burton B, Clark H, Van Goor F Methods Mol Biol 2011:741:39-54). After four days the apical media was removed, and the cells were grown at an air liquid interface for >14 days prior to use.
To isolate the CFTR-mediated short-circuit (Isc) current, F508del/MF-HBE grown on Costar® Snapwell™ cell culture inserts were mounted in an Ussing chamber and the transepithelial ISC was measured under voltage-clamp recording conditions (Vhold=0 mV) at 37° C. The basolateral solution contained (in mM) 145 NaCl, 0.83 K2HPO4, 3.3 KH2PO4, 1.2 MgCl2, 1.2 CaCl2, 10 Glucose, 10 HEPES (pH adjusted to 7.4 with NaOH) and the apical solution contained (in mM) 145 NaGluconate, 1.2 MgCl2, 1.2 CaCl2, 10 glucose, 10 HEPES (pH adjusted to 7.4 with NaOH) and 30 μM amiloride to block the epithelial sodium channel. […] The CFTR-mediated Isc (μA/cm^2) for each condition was determined from the peak forskolin response to the steady-state current following inhibition. […]
The activity of the CFTR potentiator compounds on the CFTR-mediated Isc was determined in Ussing chamber studies as described above. […]

In the case of `C[C@@H]1CCCC(O)C[C@](O)(C(F)(F)F)C2=NN=C(O2)c2nc(c(C(F)(F)F)cc2N)O1` (single isomer, unassigned), the concentration for a half-maximal effect (EC50) is less than 500 nM.

Usually EC50 stands for the concentration giving half of the maximal effect.
